Results of single-concentration screens

Sequences of proteins named here, by UniProt entry; tags and fusion partners are left off. Residues count along the entry.
UniProt Q4DA54, 1-478: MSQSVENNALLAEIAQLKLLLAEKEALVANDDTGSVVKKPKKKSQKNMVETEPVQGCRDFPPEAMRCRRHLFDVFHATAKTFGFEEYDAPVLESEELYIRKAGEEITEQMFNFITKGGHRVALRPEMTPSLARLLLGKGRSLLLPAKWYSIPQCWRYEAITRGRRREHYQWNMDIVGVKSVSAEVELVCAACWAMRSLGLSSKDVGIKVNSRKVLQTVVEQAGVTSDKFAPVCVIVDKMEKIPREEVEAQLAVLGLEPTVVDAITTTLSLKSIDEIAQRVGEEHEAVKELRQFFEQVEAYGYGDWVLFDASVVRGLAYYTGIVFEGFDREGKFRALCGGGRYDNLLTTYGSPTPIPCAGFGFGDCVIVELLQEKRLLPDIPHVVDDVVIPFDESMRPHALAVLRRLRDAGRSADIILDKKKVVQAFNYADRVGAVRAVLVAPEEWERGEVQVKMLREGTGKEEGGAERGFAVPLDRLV
UniProt A4I591, 1-473: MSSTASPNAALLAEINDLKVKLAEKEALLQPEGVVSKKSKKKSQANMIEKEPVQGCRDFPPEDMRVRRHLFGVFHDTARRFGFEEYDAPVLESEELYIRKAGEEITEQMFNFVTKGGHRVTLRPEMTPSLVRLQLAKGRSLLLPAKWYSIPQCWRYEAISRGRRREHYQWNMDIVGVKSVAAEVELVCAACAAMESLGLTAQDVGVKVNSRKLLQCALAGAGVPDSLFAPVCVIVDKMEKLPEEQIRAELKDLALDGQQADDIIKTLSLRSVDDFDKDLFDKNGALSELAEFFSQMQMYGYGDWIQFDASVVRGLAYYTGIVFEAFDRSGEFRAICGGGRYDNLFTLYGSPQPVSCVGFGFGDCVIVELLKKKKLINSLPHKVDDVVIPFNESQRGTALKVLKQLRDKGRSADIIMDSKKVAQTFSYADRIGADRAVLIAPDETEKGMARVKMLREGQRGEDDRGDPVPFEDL

Measurements from “University of Dundee, Small-Polar-MMV Screening Library” (2021), ChEMBL document CHEMBL3988442.

TcHisRS: 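Histidine-tRNA ligase, Trypanosoma cruzi CL Brener (UniProt Q4DA54). Enzyme assay of histidyl-tRNA synthetase; the read-out is not stated. Concentration: 30 µM. Direction is inferred from retests: higher values go with stronger inhibition. About 69,000 compounds were tested under these conditions; 0.045% (about 31) showed 50% or more at least once.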
LiHisRS: 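Enzyme assay of histidyl-tRNA synthetase; the read-out is not stated. Target: Histidine-tRNA ligase, Leishmania infantum (UniProt A4I591). Concentration: 30 µM. Higher reads as stronger inhibition (inferred: compounds with an IC50 in retests scored well above the rest). The assay is labelled LdHisRS but filed under L. infantum. About 69,000 compounds were tested under these conditions; 0.6% (about 410) showed 50% or more at least once.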

Results are given as percent effect. How 0% and 100% were set is not recorded. Most values in the screen are low, and negative values occur. This is an unselected part of the compounds tested.

| # | SMILES | TcHisRS | LiHisRS |
|---|---|---|---|
| 1 | `CCCSCC(=O)Nc1ncn(CC(=O)N2CCCCCC2)n1` | 5.759% | 12.07% |
| 2 | `CN(C)c1ccc(CC2CCN(c3cnccn3)CC2)nn1` | 6.923% | 11.27% |
| 3 | `CCC(O)C1CCN(C(=O)Nc2nc(-c3ccccc3)ns2)CC1` (stereo unspecified) | 3.261% | 11.84% |
| 4 | `COCc1cc(N2CCN(C3CCCCC3)CC2)n2nccc2n1` | 12% | 14.75% |
| 5 | `CCN1CCCC(c2c(-c3ccccc3)ncn2Cc2csc(N)n2)C1` (stereo unspecified) | 1.587% | 11.76% |
| 6 | `Cc1ccc(CN2CCC[C@]3(C(=O)O)CN(C)C[C@@H]3C2)s1` | 8.466% | 6.364% |
| 7 | `CC(C)(C)NC(=O)N1CCC(NC(=O)Cc2cccnc2)CC1` | 5.419% | 22.37% |
| 8 | `Cc1cc(C(=O)N[C@@H]2CCNC[C@H]2O)ccc1Cl` | 3.333% | 26.92% |
| 9 | `Cc1c(NC(=O)CN2CCC(Oc3cnccn3)CC2)cnn1C` | -3.077% | 5.634% |
| 10 | `COc1cc(OC)c(CNC(=O)NCc2ccc(C#N)cc2)c(OC)c1` | 3.061% | 5.714% |
| 11 | `CNC(=O)CS(=O)(=O)C1CCN(S(=O)(=O)C2CC2)CC1` | 0.8264% | 9.615% |
| 12 | `Cc1ccc(CN2CC[C@H]3C[C@H](C(=O)N(C)C)O[C@H]3C2)cc1` | 7.438% | 12.73% |
| 13 | `CC(C)c1nn(C)c(N(C)C)c1CNCCC(=O)N(C)C` | -2.273% | 7.576% |
| 14 | `COC(=O)c1ncccc1N1CCCC1` | 2.679% | 17.7% |
| 15 | `Clc1cccc(-c2cccc(N3CCC(NC4CCOCC4)CC3)c2)c1` | 5% | 20.41% |
| 16 | `COC(=O)C1CCCCN1Cc1cccc(C(=O)NCc2ccco2)c1` (stereo unspecified) | 12.07% | 6.14% |
| 17 | `O=C1N(Cc2cccc(F)c2F)CCCC1(O)CNCc1ccccn1` (stereo unspecified) | 6.522% | 15.15% |
| 18 | `Cc1ccc(CN(C(=O)C(C)NC(N)=O)C2CC2)cc1C` (stereo unspecified) | 3.896% | 5.714% |
| 19 | `CCCS(=O)(=O)C(C)C(=O)Nc1ccc2oc(C3CC3)nc2c1` (stereo unspecified) | 8.28% | 26.76% |
| 20 | `O=C(c1ccco1)N1CC(S(=O)(=O)c2ccc(Cl)cc2)C1` | 5% | 2.174% |
| 21 | `CCSCCC(C)N(C)C(=O)c1ccc(C)o1` (stereo unspecified) | 2.703% | 5.479% |
| 22 | `NC(=O)NC(=O)CCSc1ccccc1Cl` | 1.538% | 12.7% |
| 23 | `CCCN1CCC(CC(=O)N(C)CC(=O)c2ccc(O)cc2)CC1` | 3.529% | 15.08% |
| 24 | `FC(F)(F)Cn1ccnc1CNCCn1cccn1` | -9.524% | -2.74% |
| 25 | `Cc1nn(C(C)C)c(C)c1NC(=O)c1ccc(F)cc1` | 2.041% | 6.452% |
| 26 | `CCn1ccc(NS(=O)(=O)c2cccc(COC)c2)n1` | 7.018% | 14.16% |
| 27 | `Cc1cc(S(=O)(=O)NCc2cccc(C(=O)N3CCCC3)c2)c(C)s1` | -1.132% | -66.67% |
| 28 | `CC(Cn1ccnc1)NC(=O)NCCc1cccs1` (stereo unspecified) | 7.647% | 9.174% |
| 29 | `O=C(CCNc1ccccc1)NC1CCN(C(=O)C2CCCCC2)CC1` | 8.808% | 28.09% |
| 30 | `Cc1nc(CSCCC(=O)NCc2ccc(-n3cncn3)nc2)cs1` | 4.651% | 1.786% |
| 31 | `Cc1nccc(-c2cccc(NCC(=O)NCC(=O)N3CCCC3)c2)n1` | 2.89% | 14.91% |
| 32 | `O=C(Nc1ccccc1)[C@H]1C[C@@H]2CN(S(=O)(=O)C3CC3)C[C@H]1O2` | 6.098% | 17.95% |
| 33 | `CC(C)(CO)CCCNC(=O)NC1(c2ccccc2F)CC1` | 5% | 4.082% |
| 34 | `Cc1cc(CN2CC[C@H]3C[C@H](c4nc(C5CC5)cs4)O[C@@H]3C2)no1` | 7.735% | 20.72% |
| 35 | `CCc1[nH]ncc1C(=O)N1CCN(c2nccc(OC)n2)CC1` | 3.03% | 17.46% |
| 36 | `O=C1CCCN1C1CCCN(CCOc2ccc(F)cc2)C1` (stereo unspecified) | 5.195% | 17.14% |
| 37 | `O=C(CC1NC(N2CCc3ccccc32)=NC1=O)Nc1ccc(Cl)cc1` (stereo unspecified) | 4.167% | 2.083% |
| 38 | `CCOCCC(=O)N1CCCCC1CCn1cccn1` (stereo unspecified) | 5.882% | 0.5236% |
| 39 | `CCS(=O)(=O)c1ccccc1C(=O)NCc1ccnc(N(C)C)c1` | -3.053% | 24.66% |
| 40 | `Cc1cc(CN2CCCC(NS(C)(=O)=O)C2)ccc1-n1cncn1` (stereo unspecified) | 0.5236% | 5.172% |
| 41 | `COc1ccc(OC)c(-n2cnnc2CCN)c1` | 2.174% | 27.27% |
| 42 | `CC(=O)N1CCCN(Cc2cc(F)cc(Br)c2)CC1` | -2.484% | 25% |
| 43 | `Cc1nc2c(c(N3CCC(CN4CCCC4=O)CC3)n1)CCNCC2` | 7.792% | 20% |
| 44 | `O=C(NCc1ccnc(OCC2CC2)c1)C1COc2ccccc2O1` (stereo unspecified) | 4.972% | 7.254% |

4 of the entries, repeated:

{"smiles": "Cc1nc(CSCCC(=O)NCc2ccc(-n3cncn3)nc2)cs1", "TcHisRS": 4.651, "LiHisRS": 1.786}
{"smiles": "Cc1ccc(CN(C(=O)C(C)NC(N)=O)C2CC2)cc1C", "stereo": "stereo unspecified", "TcHisRS": 3.896, "LiHisRS": 5.714}
{"smiles": "CCS(=O)(=O)c1ccccc1C(=O)NCc1ccnc(N(C)C)c1", "TcHisRS": -3.053, "LiHisRS": 24.66}
{"smiles": "O=C(CC1NC(N2CCc3ccccc32)=NC1=O)Nc1ccc(Cl)cc1", "stereo": "stereo unspecified", "TcHisRS": 4.167, "LiHisRS": 2.083}